In ChEMBL document CHEMBL5584316, “Arcopilins: A New Family of Staphylococcus aureus Biofilm Disruptors from the Soil Fungus Arcopilus navicularis” (J Med Chem, 2024) one finds MIC data, which are given here for one sequence.

The experiment has as its system Candida albicans. The experiment is described as follows: Antimicrobial activity against Candida albicans DSM 1665 assessed as inhibition of microbial growth incubated overnight by serial dilution method. In kind it is functional.

Take NYSTATIN: the MIC – broadly, the lowest concentration found to suppress growth – is 8.3 µg/mL.
